Screen size: about 350,000 compounds; about 220 (0.063%) were called active. Inconclusive means that the source gave no clear call. Such entries were picked first, then a sample of the others. Calls follow the shape of the dose curve; as a rule, active = well fitted activation curve with a large enough effect; inconclusive = small, poorly fitted or top-dose-only effect; inactive = no such curve, though single readings can be large or run the other way. Potencies of inconclusive entries are doubtful fits and often do not repeat.
test: qHTS for Activators of Integrin-Mediated Alleviation for Muscular Dystrophy; conditions: alpha7betagal myoblasts, beta-gal FDG fluorescence, 48 h; activation: at 38.3 µM (top of the series); also: nearly all actives have a fitted effect of over 60% in size;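 as to activation: 100% = response of the positive control SU9516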
Method in brief: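 alpha7betagal+/- myoblasts (passage 13, 250/well) treated 48 h at 37C with compounds at 1:260 dilution of DMSO stock. Lysed, then beta-galactosidase activity read as FDG fluorescence (ex 480/em 540) after 30 min, with pre-read for autofluorescence.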
Potency is read from the fitted curve at half-maximal effect.

Compound	Potency	activation
O=C1C(Cl)=C(N2CCCCCC2)C(=O)N1c1ccccc1Cl	inconclusive: 0.501 µM [activator, full curve, poor fit]	
O=C1C(=O)N(Cc2cccnc2)C(c2cccc([N+](=O)[O-])c2)/C1=C(/O)c1ccc2c(c1)OCO2 (stereo not drawn)	inconclusive: 7.94 µM [activator, partial curve, poor fit]	
N#CC1(NC(=O)Cn2ncc(Cl)c(Cl)c2=O)CCCCC1		inactive: -18.4%
O=C(O)Cn1c(COc2ccc(Cl)cc2)nc2ccccc21	inconclusive: 5.01 µM [activator, single point]	
Cc1ccc(S(=O)(=O)N2CCN=C2SCc2ccccc2)cc1	inconclusive: 15.8 µM [activator, single point]	
CCOC(=O)C1=NNC2(CC(=O)N(c3cc(C)cc(C)c3)C2=O)C1 (stereo not drawn)	inconclusive: 3.98 µM [activator, partial curve, poor fit]	
COc1ccc(N2Cc3ccccc3C2=NC(=O)c2cccc([N+](=O)[O-])c2)cc1	inconclusive: 10 µM [activator, partial curve, poor fit]	
CC(=O)Nc1ccc(NC(=O)Cn2cc3c(n2)CCCC3)cc1	inconclusive: 12.6 µM [activator, partial curve, poor fit]	
O=S(=O)(c1ccc(Cl)cc1)N1CCCC1c1nc2ccccc2s1 (stereo not drawn)	inconclusive: 22.4 µM [activator, single point]	
CC1(C)CC(=O)C(C(=O)Cc2ccccc2[N+](=O)[O-])C(=O)C1		inactive: 28.8%
CC1(CCC(=O)N2CCCC(N3CCN(c4cccc(C(F)(F)F)c4)CC3)C2)CC1 (stereo not drawn)	inconclusive: 10 µM [activator, single point]	
CCOC(=O)C1=C(C)NC(=S)NC1/C=C/c1ccccc1 (stereo not drawn)		inactive: 7.83%
CC(C)CCN(CCC(C)C)CC(O)Cn1c2ccccc2c(=O)c2ccccc21 (stereo not drawn)	inconclusive: 28.2 µM [activator, single point]	
Cc1ccc(N2C(=O)CN=C2Nc2nc(C)cc(C)n2)cc1	inconclusive: 14.1 µM [activator, single point]	
O=C1Cc2ccccc2C(=O)N1Cc1cccc(Cl)c1	inconclusive: 2.82 µM [activator, partial curve, poor fit]	
CCCc1ccc(OCc2ccc(C(=O)N3CCN(c4ccccn4)CC3)o2)c(OC)c1		inactive: -32.1%
O=C(Nc1nc2cc3c(cc2s1)OCO3)c1ccc(N2C(=O)CCC2=O)cc1	inconclusive: 1.78 µM [activator, partial curve, poor fit]	
Cc1cc(C)n(C(C)CNS(=O)(=O)c2ccc(C)c(C)c2)n1 (stereo not drawn)	inconclusive: 22.4 µM [activator, single point]	
COc1ccc(CSc2nc3nc(C)cc(C)n3n2)cc1F	inconclusive: 3.98 µM [activator, single point]	
Cc1cc(C(=O)N/N=C/c2ccc(-c3ccc([N+](=O)[O-])cc3C)o2)n[nH]1	inconclusive: 11.2 µM [activator, partial curve, poor fit]	
C/C(=N\NC(=O)c1cc2c(s1)CCC(C)C2)c1ccncc1 (stereo not drawn)		inactive: 11%
CCOc1ccc(-n2c(N)c(C(=O)N3CCN(C)CC3)sc2=S)cc1	inconclusive: 10 µM [activator, partial curve, poor fit]	
CC(C)n1nc(C(=O)NC2CCCCCC2)c2ccccc2c1=O	inconclusive: 5.01 µM [activator, single point]	

Compound	Potency	activation
COc1ccc(Cl)cc1Nc1nc(-c2sc(NC(=O)C(C)(C)C)nc2C)cs1		inactive: 4.17%
Cc1cccc(NC(=O)c2oc3ccc(S(=O)(=O)N4CCOCC4)cc3c2C)c1C		inactive: -2.2%
Cc1cccc(/C(N)=N/OC(=O)COc2ccc(Cl)cc2)c1	inconclusive: 0.501 µM [activator, full curve, poor fit]	
COc1ccccc1NC(=O)N[C@@H](Cc1c[nH]c2ccccc12)C(=O)NN		inactive: 3.97%
O=C(Nc1cc(-c2nc3ccccc3s2)ccc1Cl)c1ccc2c(c1)OCO2	inconclusive: 10 µM [activator, partial curve, poor fit]	
COc1ccc(Cl)cc1N(CC(=O)Nc1ccccc1C(=O)N1CCCC1)S(C)(=O)=O	inconclusive: 28.2 µM [activator, single point]	
CC(=O)N1c2ccccc2C2(C)C(C1(C)C)C2(Cl)Cl (stereo not drawn)	inconclusive: 17.8 µM [activator, single point]	
Cc1nc(N2CCN(S(=O)(=O)c3cccs3)CC2)c2c(-c3ccccc3)c(C)sc2n1		inactive: 3.6%
C/C(=N/Oc1nc(C)cc(C)n1)c1ccc(Cl)cc1Cl		inactive: -15.5%
O=C(Nc1cc(S(=O)(=O)N2CCCCCC2)ccc1OCC(F)(F)F)C1CCC1		inactive: 26%
COc1ccc(/C=N/NC(=O)c2sc3nc(C)cc(C)c3c2N)cc1	inconclusive: 1 µM [activator, full curve, poor fit]	
CN(Cc1ncc[nH]1)C(=O)c1cc(COc2c(F)cccc2F)on1	inconclusive: 10 µM [activator, single point]	
CCN(CC)c1ccc(/C=N/NC(=O)Cc2cccs2)c(O)c1		inactive: 7.26%
O=P(O)(CCCP(=O)(O)CCc1ccccc1)CCc1ccccc1	inconclusive: 10 µM [activator, partial curve]	
Oc1c(CN2CCN(c3ccccc3)CC2)cc(Br)c2cccnc12		inactive: -39.9%
Cn1nc(-c2ccc(Cl)cc2)cc1NC(=O)CSCC(=O)O	inconclusive: 11.2 µM [activator, partial curve, poor fit]	
CCOc1ccc(CNS(=O)(=O)c2c(C)nc3scc(C)n3c2=O)cc1OC	inconclusive: 6.31 µM [activator, partial curve, poor fit]	
CCc1ccc(-c2cc(C)no2)cc1S(=O)(=O)NCCc1ccccc1	inconclusive: 2 µM [activator, partial curve, poor fit]	
CCOC(=O)c1c(SC)[nH]c2c(Cl)cccc2c1=O	inconclusive: 12.6 µM [activator, single point]	
Cc1cc(C)c(S(=O)(=O)Nc2nccs2)c(C)c1		inactive: 23.8%
CC(=O)c1ccc(NC(=O)CCCC(=O)c2ccccc2)cc1	inconclusive: 28.2 µM [activator, single point]	
COc1cccc(/C=C2\SC(=O)N(CCC(=O)NCCCn3ccnc3)C2=O)c1	inconclusive: 5.01 µM [activator, single point]	
CCn1c(COc2ccccc2OC)nnc1SCC(=O)NC1CCCC1	inconclusive: 5.01 µM [activator, single point]	

Compound	Potency	activation
OC(COc1ccc(CNCCc2ccccc2F)cc1)CN1CCCCC1 (stereo not drawn)		inactive: -8.94%
Cc1ccc(N(C(=O)c2csnn2)C(C(=O)NC2CCCCC2)c2cccnc2)cc1 (stereo not drawn)		inactive: -27.6%
COC(=O)c1cc(COC(=O)CNC(=O)c2cccc(C)c2)oc1C	inconclusive: 5.62 µM [activator, partial curve, poor fit]	
CCOc1cc(/C=C2/C(=N)N3C(=NC2=O)SN=C3S(C)(=O)=O)ccc1OC(=O)c1ccco1	inconclusive: 0.447 µM [activator, full curve, poor fit]	
COCC(C)Nc1ncnc2c1cnn2-c1ccc(Cl)cc1 (stereo not drawn)	inconclusive: 5.01 µM [activator, single point]	
Cc1cc(C(=O)Nc2nnc(C(F)(F)F)s2)no1	inconclusive: 7.08 µM [activator, partial curve, poor fit]	
Cc1sc(NC(=S)NC(=O)c2ccco2)c(C#N)c1C	inconclusive: 2.82 µM [activator, single point]	
COC(=O)/C(=C1/Oc2ccc(C(C)(C)C)cc2S1)C(F)(F)F	inconclusive: 2.24 µM [activator, partial curve, poor fit]	
CCOC(=O)c1c(NC(=O)C2CC=CCC2C(=O)O)sc(C)c1CC (stereo not drawn)	inconclusive: 2 µM [activator, full curve, poor fit]	
Cc1ccc(OCCCN2CCOCC2)cc1		inactive: 17.6%
CC1=NN(c2ccccc2)C(=O)/C1=C/C=C/c1ccc(N(C)C)cc1		inactive: 15.2%
Cc1ccc(NC(=O)Nc2cccnc2)cc1Cl	inconclusive: 28.2 µM [activator, single point]	
COCCC(=O)N1CCC(Oc2ccc(C(=O)NCc3cccc(C)n3)cc2)CC1		inactive: 2.65%
CCN1CCN(C(=O)c2cc3c(s2)-c2c(C)cccc2OC3)CC1	inconclusive: 3.55 µM [activator, single point]	
CC(C)c1c(C(=O)N/N=C2\CCc3ccccc32)nnn1-c1nonc1N	inconclusive: 5.01 µM [activator, single point]	
Clc1ccc2c(NCc3ccccn3)ccnc2c1	inconclusive: 5.01 µM [activator, partial curve, poor fit]	
NC(=O)NC(c1ccc(Cl)cc1)c1ccccc1Cl (stereo not drawn)		inactive: 1.83%
CC(=O)Nc1ccc(S(=O)(=O)Nc2ccc3c(c2)n(C)c(=O)n3C)c(C)c1	inconclusive: 5.01 µM [activator, single point]	
CCOc1ccc(/C=C/C(=O)N2CCOCC2)cc1OC	inconclusive: 2.82 µM [activator, single point]	
C/C(N)=C(/C#N)C(=O)CSc1nnc(-c2ccc(OC(F)F)cc2)o1	inconclusive: 12.6 µM [activator, single point]	
O=C(COc1ccccc1)N(Cc1cccc(F)c1)C1CCS(=O)(=O)C1 (stereo not drawn)	inconclusive: 11.2 µM [activator, partial curve, poor fit]	
O=C(CCCO)N/N=C/c1ccccc1[N+](=O)[O-]		inactive: 24.4%

Retrieved one by one from above:
Compound	Potency	activation
Cc1ccc(N(C(=O)c2csnn2)C(C(=O)NC2CCCCC2)c2cccnc2)cc1 (stereo not drawn)		inactive: -27.6%
O=C1C(=O)N(Cc2cccnc2)C(c2cccc([N+](=O)[O-])c2)/C1=C(/O)c1ccc2c(c1)OCO2 (stereo not drawn)	inconclusive: 7.94 µM [activator, partial curve, poor fit]	
Cc1ccc(NC(=O)Nc2cccnc2)cc1Cl	inconclusive: 28.2 µM [activator, single point]	

From PubChem BioAssay AID624291 (National Center for Advancing Translational Sciences (NCATS), 2012)
